Results as given in paper doi:10.1101/2020.02.03.932822.
No constants are given. Whether binding was seen depends on the method and setting. Binding seen in cells or lysates may run through a third protein. Some results given as binding are weak or reduced against the parent protein; the word gives no strength. For part of these data: Sequences can lack the tags named with a protein.

The chains behind the UniProt entries cited, without tags or fusion partners. Where a name states a change or a piece, a line headed by the entry shows the natural chain unless it says otherwise.
UniProt Q9UPV7: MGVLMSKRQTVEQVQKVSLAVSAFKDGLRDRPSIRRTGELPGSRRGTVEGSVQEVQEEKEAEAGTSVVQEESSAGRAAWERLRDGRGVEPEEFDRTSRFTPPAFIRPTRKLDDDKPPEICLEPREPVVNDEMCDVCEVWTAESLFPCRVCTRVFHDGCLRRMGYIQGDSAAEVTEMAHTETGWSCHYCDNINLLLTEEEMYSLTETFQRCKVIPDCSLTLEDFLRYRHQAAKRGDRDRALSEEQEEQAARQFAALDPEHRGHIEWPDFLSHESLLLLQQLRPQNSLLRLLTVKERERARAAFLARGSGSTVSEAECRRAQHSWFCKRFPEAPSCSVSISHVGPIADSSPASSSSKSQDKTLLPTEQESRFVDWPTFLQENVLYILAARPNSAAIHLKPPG
UniProt P63096: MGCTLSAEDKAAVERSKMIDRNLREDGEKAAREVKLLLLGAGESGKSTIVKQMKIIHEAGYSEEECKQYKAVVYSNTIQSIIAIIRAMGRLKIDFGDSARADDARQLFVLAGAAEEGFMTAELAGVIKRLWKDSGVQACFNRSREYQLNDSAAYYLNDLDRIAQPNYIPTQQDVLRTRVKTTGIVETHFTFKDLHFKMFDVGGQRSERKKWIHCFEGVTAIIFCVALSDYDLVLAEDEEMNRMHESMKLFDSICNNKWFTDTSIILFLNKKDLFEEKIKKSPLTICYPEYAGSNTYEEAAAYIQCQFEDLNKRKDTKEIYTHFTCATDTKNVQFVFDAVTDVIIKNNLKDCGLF

What was measured:
GST-tagged GINIP protein = GST-tagged GINIP protein (UniProt Q9UPV7); experiment: pull-down
[1] = target: Gi1Q306K with internal GluGlu (EE) tag (UniProt P63096); experiment: co-IP
LPHN2-GFP = target: T1, LPHN2-GFP (UniProt O95490); experiment: co-IP
T1 sequence: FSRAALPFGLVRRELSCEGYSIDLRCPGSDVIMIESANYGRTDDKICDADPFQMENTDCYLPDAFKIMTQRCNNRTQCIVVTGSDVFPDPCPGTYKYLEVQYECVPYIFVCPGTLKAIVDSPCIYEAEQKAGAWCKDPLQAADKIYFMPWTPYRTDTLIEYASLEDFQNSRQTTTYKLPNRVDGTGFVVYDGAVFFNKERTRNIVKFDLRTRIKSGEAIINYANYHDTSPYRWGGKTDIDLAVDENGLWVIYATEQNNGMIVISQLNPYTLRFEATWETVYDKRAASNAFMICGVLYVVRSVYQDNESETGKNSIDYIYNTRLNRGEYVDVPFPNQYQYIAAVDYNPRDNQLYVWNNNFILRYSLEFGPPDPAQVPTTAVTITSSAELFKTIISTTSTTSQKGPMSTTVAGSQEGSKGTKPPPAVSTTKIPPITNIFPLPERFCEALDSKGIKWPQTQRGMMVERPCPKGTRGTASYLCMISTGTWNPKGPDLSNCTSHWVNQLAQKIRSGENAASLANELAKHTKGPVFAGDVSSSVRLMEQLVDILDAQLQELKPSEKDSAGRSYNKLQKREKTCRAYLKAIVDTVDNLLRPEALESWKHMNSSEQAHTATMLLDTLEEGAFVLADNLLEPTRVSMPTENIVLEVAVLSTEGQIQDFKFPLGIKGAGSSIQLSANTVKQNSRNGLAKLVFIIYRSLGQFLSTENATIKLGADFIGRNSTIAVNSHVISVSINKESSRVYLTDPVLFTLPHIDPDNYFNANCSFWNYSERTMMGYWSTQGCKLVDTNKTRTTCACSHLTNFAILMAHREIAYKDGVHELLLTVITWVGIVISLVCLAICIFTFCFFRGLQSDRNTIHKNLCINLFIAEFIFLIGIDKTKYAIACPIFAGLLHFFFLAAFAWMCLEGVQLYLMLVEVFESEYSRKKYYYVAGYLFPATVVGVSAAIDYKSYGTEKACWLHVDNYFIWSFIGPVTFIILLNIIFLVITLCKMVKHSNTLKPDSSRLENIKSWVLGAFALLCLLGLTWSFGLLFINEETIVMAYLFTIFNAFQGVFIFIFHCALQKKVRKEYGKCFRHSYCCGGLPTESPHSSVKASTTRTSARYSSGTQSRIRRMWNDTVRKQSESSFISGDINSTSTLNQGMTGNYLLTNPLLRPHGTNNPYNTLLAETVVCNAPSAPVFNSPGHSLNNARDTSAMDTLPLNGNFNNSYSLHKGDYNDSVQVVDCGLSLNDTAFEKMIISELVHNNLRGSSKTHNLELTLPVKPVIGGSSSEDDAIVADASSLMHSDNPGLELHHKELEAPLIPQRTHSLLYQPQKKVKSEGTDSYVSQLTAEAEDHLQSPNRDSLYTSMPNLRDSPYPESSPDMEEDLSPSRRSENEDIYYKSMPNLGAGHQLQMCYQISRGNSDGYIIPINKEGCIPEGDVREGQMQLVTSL

Gi1Q306K with internal GluGlu (EE) tag (from UniProt P63096 1-354)
binding (GST-tagged GINIP protein): binds

B1: LPHN2-GFP (receptor, UniProt O95490 26-1459)
chain: FSRAALPFGLVRRELSCEGYSIDLRCPGSDVIMIESANYGRTDDKICDADPFQMENTDCYLPDAFKIMTQRCNNRTQCIVVTGSDVFPDPCPGTYKYLEVQYECVPYIFVCPGTLKAIVDSPCIYEAEQKAGAWCKDPLQAADKIYFMPWTPYRTDTLIEYASLEDFQNSRQTTTYKLPNRVDGTGFVVYDGAVFFNKERTRNIVKFDLRTRIKSGEAIINYANYHDTSPYRWGGKTDIDLAVDENGLWVIYATEQNNGMIVISQLNPYTLRFEATWETVYDKRAASNAFMICGVLYVVRSVYQDNESETGKNSIDYIYNTRLNRGEYVDVPFPNQYQYIAAVDYNPRDNQLYVWNNNFILRYSLEFGPPDPAQVPTTAVTITSSAELFKTIISTTSTTSQKGPMSTTVAGSQEGSKGTKPPPAVSTTKIPPITNIFPLPERFCEALDSKGIKWPQTQRGMMVERPCPKGTRGTASYLCMISTGTWNPKGPDLSNCTSHWVNQLAQKIRSGENAASLANELAKHTKGPVFAGDVSSSVRLMEQLVDILDAQLQELKPSEKDSAGRSYNKLQKREKTCRAYLKAIVDTVDNLLRPEALESWKHMNSSEQAHTATMLLDTLEEGAFVLADNLLEPTRVSMPTENIVLEVAVLSTEGQIQDFKFPLGIKGAGSSIQLSANTVKQNSRNGLAKLVFIIYRSLGQFLSTENATIKLGADFIGRNSTIAVNSHVISVSINKESSRVYLTDPVLFTLPHIDPDNYFNANCSFWNYSERTMMGYWSTQGCKLVDTNKTRTTCACSHLTNFAILMAHREIAYKDGVHELLLTVITWVGIVISLVCLAICIFTFCFFRGLQSDRNTIHKNLCINLFIAEFIFLIGIDKTKYAIACPIFAGLLHFFFLAAFAWMCLEGVQLYLMLVEVFESEYSRKKYYYVAGYLFPATVVGVSAAIDYKSYGTEKACWLHVDNYFIWSFIGPVTFIILLNIIFLVITLCKMVKHSNTLKPDSSRLENIKSWVLGAFALLCLLGLTWSFGLLFINEETIVMAYLFTIFNAFQGVFIFIFHCALQKKVRKEYGKCFRHSYCCGGLPTESPHSSVKASTTRTSARYSSGTQSRIRRMWNDTVRKQSESSFISGDINSTSTLNQGMTGNYLLTNPLLRPHGTNNPYNTLLAETVVCNAPSAPVFNSPGHSLNNARDTSAMDTLPLNGNFNNSYSLHKGDYNDSVQVVDCGLSLNDTAFEKMIISELVHNNLRGSSKTHNLELTLPVKPVIGGSSSEDDAIVADASSLMHSDNPGLELHHKELEAPLIPQRTHSLLYQPQKKVKSEGTDSYVSQLTAEAEDHLQSPNRDSLYTSMPNLRDSPYPESSPDMEEDLSPSRRSENEDIYYKSMPNLGAGHQLQMCYQISRGNSDGYIIPINKEGCIPEGDVREGQMQLVTSL
binding [1]: binds

B2: endoglin (receptor, UniProt P17813 26-658)
chain: ETVHCDLQPVGPERGEVTYTTSQVSKGCVAQAPNAILEVHVLFLEFPTGPSQLELTLQASKQNGTWPREVLLVLSVNSSVFLHLQALGIPLHLAYNSSLVTFQEPPGVNTTELPSFPKTQILEWAAERGPITSAAELNDPQSILLRLGQAQGSLSFCMLEASQDMGRTLEWRPRTPALVRGCHLEGVAGHKEAHILRVLPGHSAGPRTVTVKVELSCAPGDLDAVLILQGPPYVSWLIDANHNMQIWTTGEYSFKIFPEKNIRGFKLPDTPQGLLGEARMLNASIVASFVELPLASIVSLHASSCGGRLQTSPAPIQTTPPKDTCSPELLMSLIQTKCADDAMTLVLKKELVAHLKCTITGLTFWDPSCEAEDRGDKFVLRSAYSSCGMQVSASMISNEAVVNILSSSSPQRKKVHCLNMDSLSFQLGLYLSPHFLQASNTIEPGQQSFVQVRVSPSVSEFLLQLDSCHLDLGPEGGTVELIQGRAAKGNCVSLLSPSPEGDPRFSFLLHFYTVPIPKTGTLSCTVALRPKTGSQDQEVHRTVFMRLNIISPDLSGCTSKGLVLPAVLGITFGAFLIGALLTAALWYIYSHTRSPSKREPVVAVAAPASSESSSTNHSIGSTQSTPCSTSSMA
binding (LPHN2-GFP): binds
